Laboratory results: paper doi:10.1101/2021.06.06.447241 (bioRxiv, 2021)
Like-named read-outs stand apart in the source and are kept apart here. Results are given in words; binding and its absence hold for the method and conditions named. A result given as binding can be weak or reduced; the word gives no strength.

Protein sequences, listed by entry. Tags and fused reporters are not part of them. Lines headed by an entry give the natural chain unless they say otherwise; changes in a name come on top. Residues count along the entry.
UniProt P00366, residues 58-558: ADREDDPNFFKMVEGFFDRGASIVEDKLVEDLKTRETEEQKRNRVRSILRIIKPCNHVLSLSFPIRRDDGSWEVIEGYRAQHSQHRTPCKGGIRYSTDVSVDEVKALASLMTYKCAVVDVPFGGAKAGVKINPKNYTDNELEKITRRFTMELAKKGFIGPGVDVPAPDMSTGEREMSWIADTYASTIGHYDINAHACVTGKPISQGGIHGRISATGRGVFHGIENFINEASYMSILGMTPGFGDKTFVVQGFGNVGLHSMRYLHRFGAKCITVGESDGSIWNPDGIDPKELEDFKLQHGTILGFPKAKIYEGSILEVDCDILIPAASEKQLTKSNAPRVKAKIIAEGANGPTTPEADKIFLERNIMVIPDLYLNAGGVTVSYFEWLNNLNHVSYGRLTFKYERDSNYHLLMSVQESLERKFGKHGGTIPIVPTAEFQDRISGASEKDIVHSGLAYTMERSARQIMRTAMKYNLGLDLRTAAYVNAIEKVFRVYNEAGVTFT
UniProt P15992: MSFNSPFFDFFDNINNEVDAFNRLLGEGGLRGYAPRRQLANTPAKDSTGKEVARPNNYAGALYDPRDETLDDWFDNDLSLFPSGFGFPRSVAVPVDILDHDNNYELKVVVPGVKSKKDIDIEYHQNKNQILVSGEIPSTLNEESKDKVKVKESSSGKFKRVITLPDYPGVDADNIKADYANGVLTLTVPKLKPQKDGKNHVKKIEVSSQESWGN
UniProt P25491: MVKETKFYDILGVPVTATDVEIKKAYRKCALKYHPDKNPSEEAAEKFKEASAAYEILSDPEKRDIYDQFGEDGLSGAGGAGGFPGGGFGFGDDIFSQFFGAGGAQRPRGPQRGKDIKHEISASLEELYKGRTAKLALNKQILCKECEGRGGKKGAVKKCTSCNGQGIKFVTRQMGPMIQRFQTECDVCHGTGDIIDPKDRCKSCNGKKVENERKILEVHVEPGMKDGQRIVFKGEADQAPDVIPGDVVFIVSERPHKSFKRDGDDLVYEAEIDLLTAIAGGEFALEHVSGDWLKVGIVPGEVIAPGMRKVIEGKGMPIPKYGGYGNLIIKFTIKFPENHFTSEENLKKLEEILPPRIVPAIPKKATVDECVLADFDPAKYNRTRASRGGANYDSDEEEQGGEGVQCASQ

Tests used:
Assay in all cases: cross-linking
[1] = molecular target: T1, L-malate dehydrogenase (MDH, from pig heart mitochondrial) (pig) (UniProt P00346)
T1 sequence: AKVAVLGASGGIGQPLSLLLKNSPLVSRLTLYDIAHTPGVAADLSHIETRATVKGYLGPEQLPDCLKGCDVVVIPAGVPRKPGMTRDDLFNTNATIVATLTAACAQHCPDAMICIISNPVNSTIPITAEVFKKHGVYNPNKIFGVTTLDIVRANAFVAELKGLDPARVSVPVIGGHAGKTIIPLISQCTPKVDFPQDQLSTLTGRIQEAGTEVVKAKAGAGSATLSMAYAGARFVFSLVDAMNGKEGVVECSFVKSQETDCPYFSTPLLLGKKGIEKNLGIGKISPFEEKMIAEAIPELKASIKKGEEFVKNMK

[2] = molecular target: T1, L-malate dehydrogenase (MDH, from pig heart mitochondrial) (pig); remark: listed apart in the source
[3] = molecular target: glutamate dehydrogenase (GDH, from bovine liver) (bovine) (UniProt P00366)
[4] = molecular target: Hsp26 (yeast (Saccharomyces cerevisiae)) (UniProt P15992)

| Substance | binding [1] | binding [2] | binding [3] | binding [4] |
| --- | --- | --- | --- | --- |
| Hsp26 (from UniProt P15992) | binds | binds | binds | – |
| Ydj1 (Hsp40) (from UniProt P25491 1-409) | – | – | – | binds |
